Data taken from ChEMBL document CHEMBL3988442, “University of Dundee, Small-Polar-MMV Screening Library” (2021).

Protein sequences, listed by entry. Tags and fused reporters are not part of them. Residues count along the entry.
UniProt P9WFT3, whole entry: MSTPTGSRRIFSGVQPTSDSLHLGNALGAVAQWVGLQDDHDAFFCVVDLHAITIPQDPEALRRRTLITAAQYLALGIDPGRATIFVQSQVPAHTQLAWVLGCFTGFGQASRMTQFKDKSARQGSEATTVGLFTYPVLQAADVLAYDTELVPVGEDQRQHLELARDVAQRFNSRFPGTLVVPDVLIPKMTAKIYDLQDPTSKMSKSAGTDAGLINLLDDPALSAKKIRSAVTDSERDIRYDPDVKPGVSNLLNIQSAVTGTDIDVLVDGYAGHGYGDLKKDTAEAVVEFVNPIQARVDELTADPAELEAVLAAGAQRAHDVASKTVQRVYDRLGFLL
UniProt I6X8D2, whole entry: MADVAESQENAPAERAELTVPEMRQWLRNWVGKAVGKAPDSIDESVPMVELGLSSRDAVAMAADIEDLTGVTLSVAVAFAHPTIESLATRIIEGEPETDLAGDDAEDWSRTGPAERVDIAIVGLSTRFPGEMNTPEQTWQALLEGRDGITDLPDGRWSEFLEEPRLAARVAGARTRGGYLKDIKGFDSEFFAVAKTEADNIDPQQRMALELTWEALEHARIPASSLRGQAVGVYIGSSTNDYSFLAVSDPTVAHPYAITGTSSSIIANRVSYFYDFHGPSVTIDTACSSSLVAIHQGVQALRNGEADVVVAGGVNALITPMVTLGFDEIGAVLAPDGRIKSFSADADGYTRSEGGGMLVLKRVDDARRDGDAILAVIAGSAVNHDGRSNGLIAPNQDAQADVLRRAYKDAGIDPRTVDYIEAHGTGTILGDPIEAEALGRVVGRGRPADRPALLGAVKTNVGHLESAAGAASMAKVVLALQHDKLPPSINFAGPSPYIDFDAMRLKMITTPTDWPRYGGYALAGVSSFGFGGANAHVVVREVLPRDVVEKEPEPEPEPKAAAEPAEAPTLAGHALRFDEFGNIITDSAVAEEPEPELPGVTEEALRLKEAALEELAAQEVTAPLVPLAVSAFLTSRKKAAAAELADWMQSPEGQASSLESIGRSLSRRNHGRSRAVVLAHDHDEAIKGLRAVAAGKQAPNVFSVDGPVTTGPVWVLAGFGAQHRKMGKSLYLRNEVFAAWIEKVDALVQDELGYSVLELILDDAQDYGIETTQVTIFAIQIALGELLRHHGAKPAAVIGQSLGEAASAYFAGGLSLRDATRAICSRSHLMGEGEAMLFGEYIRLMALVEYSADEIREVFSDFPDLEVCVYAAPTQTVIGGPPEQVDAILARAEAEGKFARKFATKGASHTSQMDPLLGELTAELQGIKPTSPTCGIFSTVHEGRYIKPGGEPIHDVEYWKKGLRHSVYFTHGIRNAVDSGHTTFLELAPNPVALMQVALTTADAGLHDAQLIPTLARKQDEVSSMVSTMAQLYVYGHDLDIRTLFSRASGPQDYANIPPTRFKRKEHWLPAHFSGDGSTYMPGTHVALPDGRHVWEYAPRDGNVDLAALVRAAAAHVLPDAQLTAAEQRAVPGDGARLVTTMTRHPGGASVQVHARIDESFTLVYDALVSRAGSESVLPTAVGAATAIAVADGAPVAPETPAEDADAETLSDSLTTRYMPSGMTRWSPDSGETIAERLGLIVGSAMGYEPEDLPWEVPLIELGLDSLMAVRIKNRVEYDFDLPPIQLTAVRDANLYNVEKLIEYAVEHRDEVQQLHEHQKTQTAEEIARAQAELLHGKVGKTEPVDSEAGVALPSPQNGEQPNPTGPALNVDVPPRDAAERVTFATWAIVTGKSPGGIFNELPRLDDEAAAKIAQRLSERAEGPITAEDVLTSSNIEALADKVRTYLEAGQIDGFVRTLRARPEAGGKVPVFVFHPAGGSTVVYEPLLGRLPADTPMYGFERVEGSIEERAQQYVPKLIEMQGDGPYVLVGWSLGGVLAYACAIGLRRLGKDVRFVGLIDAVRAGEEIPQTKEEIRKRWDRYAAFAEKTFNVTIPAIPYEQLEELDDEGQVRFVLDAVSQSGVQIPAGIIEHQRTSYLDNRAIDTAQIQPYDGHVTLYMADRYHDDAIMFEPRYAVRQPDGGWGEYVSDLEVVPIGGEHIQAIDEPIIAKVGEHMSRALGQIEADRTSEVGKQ
UniProt A4I591, 1-473: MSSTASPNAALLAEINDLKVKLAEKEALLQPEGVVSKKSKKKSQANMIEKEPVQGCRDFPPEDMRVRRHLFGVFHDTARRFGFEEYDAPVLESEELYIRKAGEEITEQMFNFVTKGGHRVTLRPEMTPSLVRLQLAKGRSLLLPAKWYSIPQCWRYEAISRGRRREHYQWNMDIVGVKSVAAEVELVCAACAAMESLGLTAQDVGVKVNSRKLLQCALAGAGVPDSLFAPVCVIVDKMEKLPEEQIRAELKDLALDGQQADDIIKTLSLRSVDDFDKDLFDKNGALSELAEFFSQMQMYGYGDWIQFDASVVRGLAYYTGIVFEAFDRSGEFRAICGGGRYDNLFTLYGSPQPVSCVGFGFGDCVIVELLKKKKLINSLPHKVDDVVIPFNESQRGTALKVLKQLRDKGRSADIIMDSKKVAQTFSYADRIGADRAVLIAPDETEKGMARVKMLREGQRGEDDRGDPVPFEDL
UniProt Q4DA54, 1-478: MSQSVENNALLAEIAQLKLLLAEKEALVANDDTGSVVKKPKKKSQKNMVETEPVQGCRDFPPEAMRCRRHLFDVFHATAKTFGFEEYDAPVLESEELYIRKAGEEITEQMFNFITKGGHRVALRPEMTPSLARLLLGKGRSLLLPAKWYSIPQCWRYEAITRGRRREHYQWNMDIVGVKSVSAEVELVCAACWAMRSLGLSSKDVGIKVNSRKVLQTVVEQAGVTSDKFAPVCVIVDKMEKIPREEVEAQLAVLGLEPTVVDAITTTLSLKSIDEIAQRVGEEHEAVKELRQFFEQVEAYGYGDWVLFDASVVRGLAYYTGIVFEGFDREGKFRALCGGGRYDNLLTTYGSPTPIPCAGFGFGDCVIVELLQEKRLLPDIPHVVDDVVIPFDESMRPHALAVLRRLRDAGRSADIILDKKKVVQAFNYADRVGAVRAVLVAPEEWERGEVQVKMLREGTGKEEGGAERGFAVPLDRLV

MtTrpRS: 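Enzyme assay of tryptophanyl-tRNA synthetase; the read-out is not stated. Target: Tryptophan-tRNA ligase, Mycobacterium tuberculosis (UniProt P9WFT3). Compounds at 10 µM. Direction is not recorded; retested compounds ran higher, which suggests that high means inhibition. Size under these conditions: about 65,000 compounds, about 64 of them at 50% or above in at least one test.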
Pks13 thioesterase: 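Polyketide synthase Pks13, Mycobacterium tuberculosis (UniProt I6X8D2). Enzyme assay of the thioesterase domain of polyketide synthase 13; the read-out is not stated. Compounds at 30 µM. Higher reads as stronger inhibition (inferred from which compounds were picked for retests). Of about 67,000 compounds tested this way, about 300 (0.46%) reached 50% or more in at least one test.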
LiHisRS: 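Enzyme assay of histidyl-tRNA synthetase; the read-out is not stated. Target: Histidine-tRNA ligase, Leishmania infantum (UniProt A4I591). Concentration: 30 µM. The record gives no direction; compounds that gave an IC50 in retests scored well above the rest, so higher reads as stronger inhibition. The assay is labelled LdHisRS but filed under L. infantum. About 69,000 compounds were tested under these conditions; 0.6% (about 410) showed 50% or more at least once.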
TcHisRS: 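Histidine-tRNA ligase, Trypanosoma cruzi CL Brener (UniProt Q4DA54). Enzyme assay of histidyl-tRNA synthetase; the read-out is not stated. Concentration: 30 µM. Direction is inferred from retests: higher values go with stronger inhibition. Of about 69,000 compounds tested this way, about 31 (0.045%) reached 50% or more in at least one test.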

Results are given as percent effect. The controls that fix the scale are not given in the record; negative values are as filed. This is an unselected part of the compounds tested.

{"smiles": "CCOc1ccc(C(=O)Nc2c(C)nc3ccc(Cl)cn3c2=O)cc1", "MtTrpRS": -1.159, "Pks13 thioesterase": -1.327, "LiHisRS": 2.632, "TcHisRS": 12.2}
{"smiles": "C[C@@H]1CN(CCC(=O)N(C)Cc2ccccc2)C[C@@]1(O)C1CCC1", "MtTrpRS": -2.605, "Pks13 thioesterase": -17.72, "LiHisRS": 9.167, "TcHisRS": 0.9662}
{"smiles": "CCN(Cc1ccc(Cl)s1)S(=O)(=O)CC", "MtTrpRS": -3.753, "Pks13 thioesterase": -19.59, "LiHisRS": 7.018, "TcHisRS": -0.8403}
{"smiles": "Cc1nn(C)cc1CN1CCCC1c1cccc(Nc2nccs2)n1", "stereo": "stereo not given", "MtTrpRS": -8.443, "LiHisRS": 12.68, "TcHisRS": 6.061}
{"smiles": "Cc1nc2c(c(C)c1CC(=O)Nc1ccccc1F)c(=O)[nH]n2C", "MtTrpRS": 4.691, "Pks13 thioesterase": 1.646, "LiHisRS": 8.264, "TcHisRS": -1.02}
{"smiles": "Cc1ccccc1C(=O)NC1CCN(c2cnn(C)c2)C1=O", "stereo": "stereo not given", "MtTrpRS": -1.671, "Pks13 thioesterase": -10.11, "LiHisRS": 4.918, "TcHisRS": 5.814}
{"smiles": "O=C(c1ccco1)N1CCC2(CCCN(c3ncc(F)cn3)C2)C1", "stereo": "stereo not given", "LiHisRS": -0.9091, "TcHisRS": -2.116}
{"smiles": "CCn1cc(CN2CCCC2c2nc(-c3ccccc3)no2)cc1C#N", "stereo": "stereo not given", "MtTrpRS": -1.447, "Pks13 thioesterase": -8.434, "LiHisRS": 5.833, "TcHisRS": -7.729}
{"smiles": "CCOCc1cnc2n1CCN(C(=O)c1ccccc1)C2C", "stereo": "stereo not given", "Pks13 thioesterase": -47.33, "LiHisRS": 7.921, "TcHisRS": 2.513}
{"smiles": "CC1CCC(O)(CSc2nnnn2C)CC1", "stereo": "stereo not given", "MtTrpRS": 1.212, "Pks13 thioesterase": -1.125, "LiHisRS": 6.667, "TcHisRS": 1.739}
{"smiles": "CO[C@@H]1CC[C@@H](N(C)C(=O)COc2ccc(F)cc2)[C@H]1O", "MtTrpRS": 2.583, "Pks13 thioesterase": -10.79, "LiHisRS": 2.857, "TcHisRS": -2.151}
{"smiles": "c1cn(-c2cnc(C3CCNCC3)cn2)cn1", "MtTrpRS": 1.913, "Pks13 thioesterase": -1.186, "LiHisRS": 30.53, "TcHisRS": 5.224}
{"smiles": "CCN1C(=O)CCCC12CCCN(C(=O)c1cnccn1)C2", "stereo": "stereo not given", "MtTrpRS": 1.908, "Pks13 thioesterase": -5.119, "LiHisRS": 17.07, "TcHisRS": 0.7519}
{"smiles": "COc1cc(CC(O)CO)c(OC)c2c1OCO2", "stereo": "stereo not given", "MtTrpRS": 17.29, "Pks13 thioesterase": -13.24, "LiHisRS": 15.53, "TcHisRS": -1.639}
{"smiles": "CC1CN(C(=O)c2cccc(OCc3cscn3)c2)CCO1", "stereo": "stereo not given", "MtTrpRS": -2.807, "Pks13 thioesterase": -5.994, "LiHisRS": 12.04, "TcHisRS": 4.985}
{"smiles": "Cc1cc(C(=O)N2CCCC(n3cncn3)C2)c(C)n1CC1CC1", "stereo": "stereo not given", "MtTrpRS": 4.373, "Pks13 thioesterase": -10.4, "LiHisRS": 15.38, "TcHisRS": 9.972}
{"smiles": "Cc1ccc2cccc(C(=O)NCC3CCN(C(C)C)C3)c2n1", "stereo": "stereo not given", "MtTrpRS": 0.9132, "Pks13 thioesterase": -16.95, "LiHisRS": 25, "TcHisRS": 11.39}
{"smiles": "Cc1nc(CCNC2CCN(Cc3ccccc3)C2)sc1C", "stereo": "stereo not given", "MtTrpRS": -5.039, "Pks13 thioesterase": -11.32, "LiHisRS": 12.9, "TcHisRS": 4.598}
{"smiles": "CCN(CC)[C@@H]1CN(Cc2nccn2C)[C@@H]2CCCO[C@H]12", "MtTrpRS": -5.148, "Pks13 thioesterase": -2.399, "LiHisRS": 17.95, "TcHisRS": 6.952}
{"smiles": "CO[C@@H]1CN(c2ccccc2)S(=O)(=O)[C@@]12CCN(Cc1cncs1)C2", "Pks13 thioesterase": -7.133, "LiHisRS": -6.122, "TcHisRS": -3.371}
{"smiles": "O=C(c1cccc2ccnn12)N1CCCC1Cn1cccn1", "stereo": "stereo not given", "MtTrpRS": 2.055, "Pks13 thioesterase": -5.478, "LiHisRS": 6.667, "TcHisRS": -1.587}
{"smiles": "CCNC(=O)C(C)Oc1ccc(N(C)S(C)(=O)=O)cc1", "stereo": "stereo not given", "MtTrpRS": -3.185, "Pks13 thioesterase": -27.57, "LiHisRS": -4.478, "TcHisRS": 6.383}
{"smiles": "CC(=O)NC1CCCN(C(=O)CNc2cc(Cl)cc(Cl)c2)C1", "stereo": "stereo not given", "MtTrpRS": -0.5202, "Pks13 thioesterase": -10.75, "LiHisRS": 10.96, "TcHisRS": 11.11}
{"smiles": "CCc1ocnc1C(=O)N1CCOC(c2nc(C)n[nH]2)C1", "stereo": "stereo not given", "MtTrpRS": -8.435, "Pks13 thioesterase": 1.835, "LiHisRS": 6.087, "TcHisRS": -4.507}
{"smiles": "CC(C)C(=O)N1CCN(S(C)(=O)=O)CC2(CC(=O)N(C)C2)C1", "stereo": "stereo not given", "MtTrpRS": 4.328, "Pks13 thioesterase": -27.21, "LiHisRS": 10.53, "TcHisRS": -1.149}
{"smiles": "CCS(=O)(=O)N1CCC2(CCN(CC(=O)N(C)C)C2=O)CC1", "MtTrpRS": -0.1454, "Pks13 thioesterase": -16.75, "LiHisRS": 15.38, "TcHisRS": 6.796}
{"smiles": "Cc1cc(C(=O)Nc2ccn(CCCN3CCCC3)n2)no1", "MtTrpRS": 0.9709, "Pks13 thioesterase": -8.595, "LiHisRS": 18.68, "TcHisRS": 3.96}
{"smiles": "CCCc1cc(CNC2CCN(c3cc(C)nc(N)n3)CC2)on1", "MtTrpRS": 2.937, "Pks13 thioesterase": -6.029, "LiHisRS": 20.41, "TcHisRS": 12}
{"smiles": "Cc1noc([C@@]23CCO[C@@H]2CCN(C(=O)CN(C)C)C3)n1", "MtTrpRS": -4.926, "Pks13 thioesterase": -31.32, "LiHisRS": 16.67, "TcHisRS": 5.473}
{"smiles": "Cc1cc(NC(=O)CNCc2csc(-c3ncccn3)n2)ccc1Cl", "MtTrpRS": 0.1039, "Pks13 thioesterase": -29.65, "LiHisRS": 18.42, "TcHisRS": 3.911}
{"smiles": "CC(C)c1nc2c(n1C)CCN(Cc1cccc(OCC(N)=O)c1)C2", "MtTrpRS": -11.98, "Pks13 thioesterase": -2.732, "LiHisRS": 18.18, "TcHisRS": 9.357}
{"smiles": "Cc1csc([C@@H]2C[C@@H]3CCN(Cc4cnn(C)c4)C[C@H]3O2)n1", "MtTrpRS": 0.9114, "Pks13 thioesterase": -12.99, "LiHisRS": 6.604, "TcHisRS": 2.51}
{"smiles": "COCCOCC(=O)Nc1ccc(C)cc1Br", "MtTrpRS": 3.815, "Pks13 thioesterase": -2.13, "LiHisRS": 13.48, "TcHisRS": 4.523}
{"smiles": "CCN(Cc1ccc2c(c1)OCO2)Cc1nc(C)no1", "MtTrpRS": -3.678, "Pks13 thioesterase": 1.723, "LiHisRS": 2.381, "TcHisRS": 4.511}